# Record: PubChem BioAssay AID504764 (Drosophila RNAi Screening Center, 2011)
# Aim: 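Genes whose knock-down alters Notch-dependent transcription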 (primary screen)
# Cell system: Drosophila Kc167 cells
# Reagents: long dsRNA against Drosophila genes
# Time to read-out: about 5 days (4 days dsRNA, then 24 h after transfection)
# Challenge: transfection of constitutively active membrane-tethered Notch lacking the extracellular domain, read 24 h later
# Detection: 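Light from a Notch-responsive E(spl)m3 luciferase reporter under active Notch, with control-promoter and no-Notch reporter wells to normalise; raw counts from paired wells a and b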
# Reading the numbers: induced reporter light, run 1, well a and induced reporter light, run 1, well b: higher = more light from the Notch target reporter with active Notch; control promoter light, run 1, well a and control promoter light, run 1, well b: higher = more light from the viral control promoter (cell number, transfection, viability); uninduced reporter light, run 1, well a: higher = more light from the Notch target reporter without active Notch
# Rule for the call: 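Wells with low control signal or poorly matching duplicates excluded; duplicates averaged; per source plate, z beyond ±2 for induced/control log2 ratio or beyond ±1.8 for induced/uninduced marks a hit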
# Calls: active = modifier hit (raised or lowered Notch signal); inactive = not a hit
# In all, the deposit lists about 22,000 reagents; shown is a random part of those with a known target gene and a result. In the full data, 403 (1.9%) were called active. 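Unnormalised raw counts per well; ratio z-scores behind the hit calls and whether each hit raises or lowers signal are not deposited.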 Names joined by + are all predicted targets of the reagent. No sequences are given here. Not stated in the record: the amount of reagent.
target gene,dsRNA,"induced reporter light, run 1, well a","induced reporter light, run 1, well b","control promoter light, run 1, well a","control promoter light, run 1, well b","uninduced reporter light, run 1, well a",Outcome
hh,DRSC16965,1.29e5,1.43e5,1.68e5,1.50e5,11665,inactive
MED28,DRSC15721,1.18e5,1.32e5,1.23e5,1.40e5,11700,inactive
Ino80,DRSC14760,1.24e5,1.32e5,1.69e5,1.77e5,8605,inactive
Ino80,DRSC15333,1.15e5,94170,1.50e5,1.50e5,8340,inactive
Ino80,DRSC15501,1.35e5,1.21e5,1.61e5,2.04e5,10220,inactive
Pex2,DRSC10770,1.24e5,1.04e5,78685,43660,9475,inactive
ssp2,DRSC11052,1.07e5,1.06e5,70415,79780,13115,inactive
CG13117,DRSC02215,1.05e5,1.38e5,72790,84380,13975,inactive
CG3609,DRSC00620,1.15e5,99015,95105,62155,9005,inactive
CG13409,DRSC14585,1.63e5,1.48e5,1.88e5,1.47e5,11485,inactive
CG7218,DRSC16216,85765,90250,82075,78275,7210,inactive
CG42784,DRSC02534,2.69e5,2.52e5,2.00e5,2.20e5,16940,inactive
CG42784,DRSC02535,17105,17970,16920,15188,4005,inactive
SRPK,DRSC07090,1.09e5,98060,1.85e5,2.14e5,11282,inactive
TfIIA-S-2,DRSC17791,84540,1.11e5,97745,1.25e5,6315,active
Cyp6a21,DRSC07381,98860,84630,1.35e5,1.28e5,9615,inactive
Ca-alpha1T,DRSC17842,1.24e5,1.57e5,2.30e5,2.49e5,11585,inactive
Ca-alpha1T,DRSC18103,1.24e5,1.32e5,2.67e5,2.12e5,9435,inactive
Ca-alpha1T,DRSC18356,80095,75235,1.10e5,1.18e5,6415,inactive
Ca-alpha1T,DRSC18357,1.60e5,1.82e5,3.12e5,2.07e5,12000,inactive
CG15729 (retired record),DRSC19695,84860,1.02e5,1.55e5,1.39e5,6470,inactive
Eip78C,DRSC11864,10785,11680,10945,11292,3880,inactive
CG34461,DRSC10767,3.20e5,2.25e5,3.10e5,2.74e5,16078,inactive
CG33964 + CG13175,DRSC06300,91415,1.23e5,1.41e5,1.30e5,10370,inactive
CG33964 + CG13175,DRSC06301,90550,75865,1.09e5,1.02e5,8730,inactive
CG33964 + CG13175,DRSC07184,96990,93860,1.14e5,1.02e5,8188,inactive
Or22b,DRSC00765,1.12e5,1.01e5,1.10e5,67960,9428,inactive
dpr20,DRSC08265,79260,77305,1.41e5,1.82e5,8405,inactive
Cpr65Ay,DRSC08796,2.61e5,2.42e5,2.58e5,2.28e5,20210,inactive
PGAP3,DRSC04989,1.68e5,1.74e5,1.73e5,1.82e5,12560,inactive
CR11386 + CR33222,DRSC17781,1.16e5,1.49e5,2.53e5,2.28e5,9275,inactive
CG13056,DRSC09937,1.84e5,1.83e5,2.30e5,1.67e5,7330,inactive
Cad88C,DRSC15486,2.66e5,2.84e5,2.51e5,2.51e5,20050,inactive
Ote,DRSC07498,66200,74180,2.18e5,2.03e5,4250,active
CG15701,DRSC06572,1.27e5,1.25e5,1.08e5,98780,7470,inactive
ChT,DRSC16296,1.34e5,1.57e5,2.59e5,2.90e5,11500,active
Prx1,DRSC10741,1.72e5,1.99e5,2.34e5,2.03e5,11970,inactive
CG13362,DRSC17897,1.22e5,1.15e5,2.10e5,2.20e5,7845,inactive
CG12012,DRSC08220,1.21e5,1.25e5,1.51e5,1.43e5,5305,inactive
CG12589,DRSC12215,1.52e5,1.26e5,1.32e5,1.30e5,8265,inactive
wac,DRSC08349,1.05e5,1.00e5,2.44e5,2.42e5,8320,active
CG16753,DRSC08489,1.05e5,1.20e5,1.35e5,34040,14775,inactive
Sec61gamma,DRSC19570,69920,64665,84250,92155,8075,inactive
CG33125,DRSC00145,92835,79900,1.26e5,1.36e5,5195,inactive
beta4GalNAcTB,DRSC14869,1.75e5,1.88e5,2.25e5,2.38e5,18315,inactive
Jheh3,DRSC06533,93080,87430,1.60e5,1.65e5,8360,inactive
GstD11,DRSC15251,76590,78090,75855,61580,4545,inactive
Ada2b,DRSC16531,1.30e5,1.14e5,1.18e5,1.18e5,9600,inactive
Msr-110,DRSC11227,60155,1.29e5,90735,42070,13865,inactive
CG3528,DRSC00611,1.19e5,1.11e5,1.20e5,66235,11155,inactive

Sorted by “uninduced reporter light, run 1, well a” (lowest first): 6 of the entries above
target gene,dsRNA,"induced reporter light, run 1, well a","induced reporter light, run 1, well b","control promoter light, run 1, well a","control promoter light, run 1, well b","uninduced reporter light, run 1, well a",Outcome
Eip78C,DRSC11864,10785,11680,10945,11292,3880,inactive
CG33964 + CG13175,DRSC07184,96990,93860,1.14e5,1.02e5,8188,inactive
CG33964 + CG13175,DRSC06301,90550,75865,1.09e5,1.02e5,8730,inactive
Or22b,DRSC00765,1.12e5,1.01e5,1.10e5,67960,9428,inactive
CG33964 + CG13175,DRSC06300,91415,1.23e5,1.41e5,1.30e5,10370,inactive
CG34461,DRSC10767,3.20e5,2.25e5,3.10e5,2.74e5,16078,inactive
